System: EL4 cells
Test: TSA copy number per cell by PRM MS with 13C-labelled synthetic peptides
Parameters: species or system mouse
Conditions: EL4 cell population used for rechallenge (day 150)

Row | Sequence | TSA copy number per cell
1 | VNYIHRNV | no longer detected
2 | VNYLHRNV | > 500 copies per cell

From patent publication US11702450B2, “Proteogenomic-based method for identifying tumor-specific antigens” (UNIVERSITÉ DE MONTRÉAL, priority 2018, dated 2023)
